Some entries share one result that the patent states for a list of compounds.
Key:
Type in all cases: in vivo
Tetranychus urticae = experiment: Test on Tetranychus urticae (spray test); settings: active compound concentration 100 ppm; adult mites on pinto bean sprayed; 7 days
Method: The test solution has been prepared as described in biological test example 1. 50 to 100 adult Tetranychus urticae were placed on pinto bean leaves at true leaf stage having two main leaves that had been grown in a pot (6 cm diameter). After 1 day, a generous amount of the test solution which has been diluted with water to the predetermined concentration was sprayed thereto using a spray gun.
After keeping the pot in a green house for 7 days, acaricidal ratio was calculated. 100% means that all the mites have been killed; 0% means that none of the mites have been killed.

Musca domestica = settings: application rate 100 ppm; adults; 2 days
Method: (§1) Solvent: dimethyl sulfoxide
Prior to the assay, a piece or kitchen sponge is soaked with a mixture of sugar and compound solution and placed into a container. 10 adults (Musca domestica) are placed into the container and closed with a perforated lid. After 2 days, mortality in % is determined. 100% means that all the flies have been killed; 0% means that none of the flies have been killed.

Lucilia cuprina larvae = settings: application rate 100 ppm; larvae in minced horse meat; 2 days
Method: as §1
Approximately 20-30 (Lucilia cuprina larvae) are transferred into a test tube containing 1 cm^3 of minced horse meat and 0.5 ml aqueous dilution of test compound. After 2 days, mortality in % is determined.

Ctenocephalides felis = settings: application rate 100 ppm in cattle blood; adult unfed fleas; 2 days
Method: as §1
Approximately 10 to 15 adult unfed (Ctenocepahlides felis) are placed in flea chambers. […] The blood chamber is heated to 37° C. whereas the flea chamber is kept at room temperature. After 2 days, mortality in % is determined. 100% means that all the fleas have been killed; 0% means that none of the fleas have been killed.

Boophilus microplus = settings: application rate 20 μg/animal injected; adult engorged female ticks; 7 days
Method: as §1
Five adult engorged female ticks (Boophilus microplus) are injected with compound solution into the abdomen. Ticks are transferred into replica plates and incubated in a climate chamber for a period of time. Egg deposition of fertile eggs is monitored. After 7 days, mortality in % is determined. 100% means that all eggs are infertile; 0% means that all eggs are fertile.

SMILES	mortality (acaricidal ratio) (Tetranychus urticae) [%]	activity (mortality in %) (Musca domestica) [%]	activity (mortality in %) (Lucilia cuprina larvae) [%]	activity (mortality in %) (Ctenocephalides felis) [%]	activity (mortality in %; 100% means all eggs infertile) (Boophilus microplus) [%]
O=C1OCc2cc(C3=NOC(c4cc(Cl)c(Cl)c(Cl)c4)(C(F)(F)F)C3)ccc21 (stereo not drawn) [Example 1-38]	≥ 98	≥ 80	≥ 80	≥ 80	≥ 80
O=C1OCc2cc(C3=NOC(c4cc(Cl)c(Cl)c(C(F)(F)F)c4)(C(F)(F)F)C3)ccc21 (stereo not drawn) [Example 1-44]	≥ 98	≥ 80	≥ 80	≥ 80	≥ 80
CN=C1OCc2cc(C3=NOC(c4cc(Cl)cc(Cl)c4)(C(F)(F)F)C3)ccc21 (stereo not drawn) [Example 1-114]	≥ 98	≥ 80	≥ 80	≥ 80	≥ 80
O=c1[nH]ncc2cc(C3=NOC(c4cc(Cl)cc(Cl)c4)(C(F)(F)F)C3)ccc12 (stereo not drawn) [Example 1-129]	≥ 98	≥ 80	≥ 80	≥ 80	≥ 80
CC(=O)N=C1c2ccc(C3=NOC(c4cc(Cl)cc(Cl)c4)(C(F)(F)F)C3)cc2CN1Cc1ccccn1 (stereo not drawn) [Example 1-264]	≥ 98	≥ 80	≥ 80	≥ 80	≥ 80
O=C1c2ccc(C3=NOC(c4cc(Cl)cc(Cl)c4)(C(F)(F)F)C3)cc2CN1CC(F)(F)C(F)(F)F (stereo not drawn) [Example 1-272]		≥ 80	≥ 80	≥ 80	≥ 80
CCC(=O)NC1CCc2cc(C3=NOC(c4cc(Cl)cc(Cl)c4)(C(F)(F)F)C3)ccc21 (stereo not drawn) [Example 3-4]	≥ 98	≥ 80	≥ 80	≥ 80	≥ 80
O=C(NC1CCc2cc(C3=NOC(c4cc(Cl)cc(Cl)c4)(C(F)(F)F)C3)ccc21)C1CC1 (stereo not drawn) [Example 3-7]	≥ 98	≥ 80	≥ 80	≥ 80	≥ 80
CNC(=O)NC1CCc2cc(C3=NOC(c4cc(Cl)cc(Cl)c4)(C(F)(F)F)C3)ccc21 (stereo not drawn) [Example 3-8]	≥ 98	≥ 80	≥ 80	≥ 80	≥ 80
CCNC(=O)NC1CCc2cc(C3=NOC(c4cc(Cl)cc(Cl)c4)(C(F)(F)F)C3)ccc21 (stereo not drawn) [Example 3-9]	≥ 98	≥ 80	≥ 80	≥ 80	≥ 80
CNC(=S)NC1CCc2cc(C3=NOC(c4cc(Cl)cc(Cl)c4)(C(F)(F)F)C3)ccc21 (stereo not drawn) [Example 3-23]	≥ 98	≥ 80	≥ 80	≥ 80	≥ 80
O=C(NCCO)NC1CCc2cc(C3=NOC(c4cc(Cl)cc(Cl)c4)(C(F)(F)F)C3)ccc21 (stereo not drawn) [Example 3-32]	≥ 98	≥ 80	≥ 80	≥ 80	≥ 80
CC(=O)NC1CCc2cc(C3=NOC(c4cc(Cl)c(Cl)c(Cl)c4)(C(F)(F)F)C3)ccc21 (stereo not drawn) [Example 3-39]	≥ 98	≥ 80	≥ 80	≥ 80	≥ 80
CCC(=O)NC1CCc2cc(C3=NOC(c4cc(Cl)c(Cl)c(Cl)c4)(C(F)(F)F)C3)ccc21 (stereo not drawn) [Example 3-40]	≥ 98	≥ 80	≥ 80	≥ 80	≥ 80
O=C(CC(F)(F)F)NC1CCc2cc(C3=NOC(c4cc(Cl)c(Cl)c(Cl)c4)(C(F)(F)F)C3)ccc21 (stereo not drawn) [Example 3-42]	≥ 98	≥ 80	≥ 80	≥ 80	≥ 80
O=C(NC1CCc2cc(C3=NOC(c4cc(Cl)c(Cl)c(Cl)c4)(C(F)(F)F)C3)ccc21)C1CC1 (stereo not drawn) [Example 3-43]	≥ 98	≥ 80	≥ 80	≥ 80	≥ 80
CNC(=O)NC1CCc2cc(C3=NOC(c4cc(Cl)c(Cl)c(Cl)c4)(C(F)(F)F)C3)ccc21 (stereo not drawn) [Example 3-44]	≥ 98	≥ 80	≥ 80	≥ 80	≥ 80
O=C(CC(F)(F)F)NC1CCc2cc(C3=NOC(c4cc(Cl)cc(C(F)(F)F)c4)(C(F)(F)F)C3)ccc21 (stereo not drawn) [Example 3-98]		≥ 80	≥ 80	≥ 80	≥ 80
CC(=O)NC1CCCc2cc(C3=NCC(c4cc(Cl)cc(Cl)c4)(C(F)(F)F)C3)ccc21 (stereo not drawn) [Example 3-320]		≥ 80	≥ 80	≥ 80	≥ 80
CNC(=O)N1CCc2cc(C3=NOC(c4cc(Cl)cc(Cl)c4)(C(F)(F)F)C3)ccc21 (stereo not drawn) [Example 3-637]		≥ 80	≥ 80	≥ 80	≥ 80
CC(C)NC(=O)N1CCc2cc(C3=NOC(c4cc(Cl)cc(Cl)c4)(C(F)(F)F)C3)ccc21 (stereo not drawn) [Example 3-640]		≥ 80	≥ 80	≥ 80	≥ 80
O=C(NC1CC1)N1CCc2cc(C3=NOC(c4cc(Cl)cc(Cl)c4)(C(F)(F)F)C3)ccc21 (stereo not drawn) [Example 3-641]		≥ 80	≥ 80	≥ 80	≥ 80
O=C(NCC(F)(F)F)N1CCc2cc(C3=NOC(c4cc(Cl)cc(Cl)c4)(C(F)(F)F)C3)ccc21 (stereo not drawn) [Example 3-643]		≥ 80	≥ 80	≥ 80	≥ 80
C=CCNC(=O)N1CCc2cc(C3=NOC(c4cc(Cl)cc(Cl)c4)(C(F)(F)F)C3)ccc21 (stereo not drawn) [Example 3-645]		≥ 80	≥ 80	≥ 80	≥ 80
C#CCNC(=O)N1CCc2cc(C3=NOC(c4cc(Cl)cc(Cl)c4)(C(F)(F)F)C3)ccc21 (stereo not drawn) [Example 3-646]		≥ 80	≥ 80	≥ 80	≥ 80
CN(C)C(=O)N1CCc2cc(C3=NOC(c4cc(Cl)cc(Cl)c4)(C(F)(F)F)C3)ccc21 (stereo not drawn) [Example 3-651]		≥ 80	≥ 80	≥ 80	≥ 80
CNC(=S)N1CCc2cc(C3=NOC(c4cc(Cl)cc(Cl)c4)(C(F)(F)F)C3)ccc21 (stereo not drawn) [Example 3-652]		≥ 80	≥ 80	≥ 80	≥ 80
CCNC(=O)N1CCCc2cc(C3=NOC(c4cc(Cl)cc(Cl)c4)(C(F)(F)F)C3)ccc21 (stereo not drawn) [Example 3-656]		≥ 80	≥ 80	≥ 80	≥ 80
OC1OCc2cc(C3=NOC(c4cc(Cl)c(Cl)c(Cl)c4)(C(F)(F)F)C3)ccc21 (stereo not drawn) [Example 3-785]		≥ 80	≥ 80	≥ 80	≥ 80

— patent publication US20110071141A1, “Pesticidial Condensed-Ring Aryl Compounds” (Bayer CropScience AG, priority 2008, published 2011)
